# Test results reported in EP3284477A1, “COMPOSITION COMPRISING SELF-ASSEMBLING PEPTIDES FOR USE IN TREATMENT OF GINGIVITIS, PERIODONTITIS AND/OR PERI-IMPLANTITIS” (Credentis AG, priority 2016, dated 2018).
# Part of at least one peptide drawing is inferred or uncertain, most often the ends. Where a SMILES comes first, the peptide text is derived from it. [ ]: non-standard residue; d: D form. Orn = NCCC[C@H](N)C(=O)O
# Tests used:
# [1] = Stability of P11 peptide gels in absence of cells or bacteria (peptide release into supernatant, Qubit Protein Assay); type: physicochemical; design: unit not given here; settings: 7 days, 100µl peptide / well, c= 20 mg/ml, in PBS
# Protocol: (§1) The following figures and examples are supposed to illustrate and further explain, but not to limit the invention. Any references cited herein are herewith fully incorporated. • Fig. 1: Bacterial density after release of antibiotics (150 mg/ml) from self-assembling peptide gels (15 mg/ml), and the impact thereof to the growth of P. gingivalis (A-C) and S. sanguinis (D-F). Circles: metronidazol, stars: tetracycline, triangle: ciprofloxacin, squares: doxycycline hyclate; control: gel without API A/D P11-4 gel. B/E P11-13/14 gel. C/F P11-28/29 gel • Fig. 2: Cross section of demineralized tooth after incubation with polymeric P11-4. […] 100µl peptide / well, c= 20 mg/ml, in PBS, quantified with Qubit R Protein Assay Ref: Q33211. […] 100 µl peptide / well, c= 20 mg/ml, in PBS, quantified with Qubit R Protein Assay Ref: Q33211. […] Since NO3- are monovalent ions, and ionic strength of the solution was below 130 mM, P11-8 self-assembling was slowed down. On the other hand self-assembling kinetic of P11-8 with DMEM and NaCl solution is very similar. […] Human Periodontal Ligament cells were placed in a cell pool (A) and the SAP gel (C) placed on the human dentin (B). The cell/SAP-gel/ dentin was then incubated for 8 days and visually assessed resulting in migration of up to 5 mm. Scale bar: 1 mm
# [2] = Mechanical properties (storage modulus G') of gels in different ion and buffer systems; type: physicochemical; settings: DMEM versus NaCl solution
# Protocol: as §1
smiles,measurement,setting,value
"CC(=O)N[C@@H](CCC(N)=O)C(=O)N[C@@H](CCC(N)=O)C(=O)N[C@@H](CCCNC(=N)N)C(=O)N[C@@H](Cc1ccccc1)C(=O)N[C@@H](CCCN)C(=O)N[C@@H](Cc1c[nH]c2ccccc12)C(=O)N[C@@H](CCCN)C(=O)N[C@@H](Cc1ccccc1)C(=O)N[C@@H](CCC(=O)O)C(=O)N[C@@H](CCC(N)=O)C(=O)N[C@@H](CCC(N)=O)C(N)=O [P11-8, QQRFOWOFEQQ] (Ac-QQRF[Orn]W[Orn]FEQQ-NH2)",release of peptide into the supernatant,[1],less than one
same,self-assembling kinetic,[2],very similar
